Binding data for twelve molecules are collected here from publication PMC4347017.

By UniProt entry, the sequences of proteins in these tests, tags left out.
UniProt Q96P20: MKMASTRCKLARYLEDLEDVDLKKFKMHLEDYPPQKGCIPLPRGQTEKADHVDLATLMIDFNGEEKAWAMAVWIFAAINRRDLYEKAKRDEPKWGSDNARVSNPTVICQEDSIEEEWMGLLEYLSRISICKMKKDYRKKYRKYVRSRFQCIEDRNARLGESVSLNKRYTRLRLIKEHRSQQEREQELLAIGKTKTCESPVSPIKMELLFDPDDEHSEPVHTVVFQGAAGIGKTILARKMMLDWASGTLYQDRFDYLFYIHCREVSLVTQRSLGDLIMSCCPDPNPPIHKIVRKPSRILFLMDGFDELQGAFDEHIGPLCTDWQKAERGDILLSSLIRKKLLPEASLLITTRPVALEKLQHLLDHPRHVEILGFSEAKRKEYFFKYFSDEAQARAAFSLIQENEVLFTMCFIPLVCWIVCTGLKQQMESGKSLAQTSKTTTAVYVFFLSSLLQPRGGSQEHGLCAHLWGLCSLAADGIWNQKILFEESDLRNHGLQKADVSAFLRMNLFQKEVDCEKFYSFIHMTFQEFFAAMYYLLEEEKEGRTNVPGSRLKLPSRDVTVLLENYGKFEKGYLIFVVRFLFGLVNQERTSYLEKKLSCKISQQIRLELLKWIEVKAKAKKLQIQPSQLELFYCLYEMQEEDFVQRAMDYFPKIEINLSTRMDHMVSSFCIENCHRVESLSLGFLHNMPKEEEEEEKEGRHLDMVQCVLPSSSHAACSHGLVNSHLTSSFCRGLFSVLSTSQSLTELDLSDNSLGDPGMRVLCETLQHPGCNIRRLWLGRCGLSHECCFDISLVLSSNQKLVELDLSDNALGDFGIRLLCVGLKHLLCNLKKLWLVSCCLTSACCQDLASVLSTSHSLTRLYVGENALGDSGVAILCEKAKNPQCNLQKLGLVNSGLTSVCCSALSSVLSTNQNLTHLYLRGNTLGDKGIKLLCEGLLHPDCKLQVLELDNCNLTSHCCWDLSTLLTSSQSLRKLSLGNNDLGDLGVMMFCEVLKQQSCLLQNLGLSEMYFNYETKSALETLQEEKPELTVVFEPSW
UniProt Q8R4B8: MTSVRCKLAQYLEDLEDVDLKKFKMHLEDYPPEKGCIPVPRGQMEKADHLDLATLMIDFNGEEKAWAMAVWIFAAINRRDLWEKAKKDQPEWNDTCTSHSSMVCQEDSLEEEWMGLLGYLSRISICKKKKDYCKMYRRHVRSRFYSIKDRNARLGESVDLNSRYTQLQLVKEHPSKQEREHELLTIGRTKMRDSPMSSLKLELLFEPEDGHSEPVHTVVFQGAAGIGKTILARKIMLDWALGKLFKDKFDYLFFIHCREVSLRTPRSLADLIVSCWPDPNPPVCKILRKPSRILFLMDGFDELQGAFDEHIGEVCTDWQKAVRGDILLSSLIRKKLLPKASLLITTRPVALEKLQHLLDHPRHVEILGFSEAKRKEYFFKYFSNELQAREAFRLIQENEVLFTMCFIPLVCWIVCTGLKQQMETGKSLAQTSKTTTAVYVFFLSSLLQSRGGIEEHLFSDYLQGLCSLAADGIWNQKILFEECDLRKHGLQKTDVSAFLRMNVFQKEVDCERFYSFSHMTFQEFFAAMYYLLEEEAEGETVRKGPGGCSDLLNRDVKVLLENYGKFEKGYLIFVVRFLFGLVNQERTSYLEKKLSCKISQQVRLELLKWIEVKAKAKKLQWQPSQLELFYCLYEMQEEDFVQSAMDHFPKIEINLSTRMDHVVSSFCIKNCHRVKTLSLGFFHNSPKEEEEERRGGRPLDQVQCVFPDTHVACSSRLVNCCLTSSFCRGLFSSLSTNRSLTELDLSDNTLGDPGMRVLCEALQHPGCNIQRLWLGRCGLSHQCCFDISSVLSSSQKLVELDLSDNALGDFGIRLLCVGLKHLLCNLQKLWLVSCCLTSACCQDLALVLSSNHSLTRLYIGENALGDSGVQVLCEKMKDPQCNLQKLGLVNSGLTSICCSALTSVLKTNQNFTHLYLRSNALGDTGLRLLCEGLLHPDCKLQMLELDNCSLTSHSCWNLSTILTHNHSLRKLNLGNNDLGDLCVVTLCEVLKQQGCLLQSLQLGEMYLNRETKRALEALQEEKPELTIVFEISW
UniProt Q9ULZ3: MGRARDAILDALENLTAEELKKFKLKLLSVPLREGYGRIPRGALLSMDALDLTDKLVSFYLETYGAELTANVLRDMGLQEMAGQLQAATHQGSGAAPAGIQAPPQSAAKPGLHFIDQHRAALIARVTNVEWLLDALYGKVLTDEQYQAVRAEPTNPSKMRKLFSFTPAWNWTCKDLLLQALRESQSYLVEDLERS

No constants are given. Whether binding was seen depends on the method and setting. Binding seen in cells or lysates may run through a third protein. Some entries that bind do so weakly or less than the wild type. For part of these data: Where a sequence is shown, tags or fusion partners need not be part of it.

Assay [1] addresses T1, Small heterodimer partner (SHP), endogenous in mouse bone marrow-derived macrophages (mouse (endogenous in BMDMs)) (UniProt Q62227).
T1 sequence: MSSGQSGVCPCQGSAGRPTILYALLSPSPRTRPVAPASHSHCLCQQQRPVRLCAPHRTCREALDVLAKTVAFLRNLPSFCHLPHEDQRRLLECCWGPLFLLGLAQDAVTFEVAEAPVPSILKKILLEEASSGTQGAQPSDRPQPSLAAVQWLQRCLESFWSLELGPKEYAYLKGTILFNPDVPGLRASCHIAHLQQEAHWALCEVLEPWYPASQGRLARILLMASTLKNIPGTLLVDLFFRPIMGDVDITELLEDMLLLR
Description: co-IP; endogenous proteins, whole-cell lysates (RIPA buffer) of LPS-primed BMDMs stimulated with ATP for the indicated durations; IP with anti-SHP or anti-NLRP3; also cells treated with fenofibrate or AICAR.

Assay [2] concerns the target T2, Small heterodimer partner (SHP), endogenous in human THP-1 cells (human (endogenous in THP-1)) (UniProt Q15466).
T2 sequence: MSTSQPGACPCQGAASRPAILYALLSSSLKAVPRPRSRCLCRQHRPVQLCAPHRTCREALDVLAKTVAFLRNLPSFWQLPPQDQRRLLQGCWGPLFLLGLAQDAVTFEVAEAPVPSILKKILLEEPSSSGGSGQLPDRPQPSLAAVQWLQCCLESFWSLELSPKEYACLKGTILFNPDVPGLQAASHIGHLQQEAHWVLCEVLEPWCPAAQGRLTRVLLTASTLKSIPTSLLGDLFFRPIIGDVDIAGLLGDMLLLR
As to the kind of experiment: co-IP; endogenous proteins, human THP-1 cells after NLRP3 inflammasome activation (Supplementary Fig. 1a,b).

Assay [3] addresses NLRP3, endogenous in human THP-1 cells (human (endogenous in THP-1)) (UniProt Q96P20). As to the kind of experiment: co-IP; THP-1 cells after NLRP3 inflammasome stimulation, mitochondrial fraction (Supplementary Fig. 7).
In assay [4] the target is Flag-tagged NLRP3 (human) (UniProt Q96P20). Description: co-IP; HEK293T cells co-transfected with tagged constructs, RIPA lysates; IP with anti-V5, anti-Flag or anti-AU1, immunoblot for Flag, V5, AU1 or GFP. (A western blot detects proteins with antibodies after separation by electrophoresis.)
Assay [5] deals with NOD-like receptor family, pyrin domain-containing 3 (NLRP3), endogenous in mouse bone marrow-derived macrophages (mouse (endogenous in BMDMs)) (UniProt Q8R4B8). Description: co-IP; LPS-primed BMDMs (SHP+/+ and SHP-/-) stimulated with ATP (5 mM), subcellularly fractionated (cytosolic, mitochondrial), IP with anti-NLRP3, immunoblot for SHP, ASC, MAVS, TXNIP, NLRP3.

With “NOD-like receptor family, pyrin domain-containing 3 (NLRP3), endogenous in mouse bone marrow-derived macrophages (from UniProt Q8R4B8 1-1033)”, the binding result in assay [1] is recorded as “binds”.
“NLRP3, endogenous in human THP-1 cells (from UniProt Q96P20 1-1036)”: the binding entry in assay [2] was “binds”.
“ASC, endogenous in human THP-1 cells (from UniProt Q9ULZ3 1-195)”: the binding entry in assay [2] was “no binding”.

B1: Small heterodimer partner (SHP), endogenous in human THP-1 cells (protein, UniProt Q15466 1-257)
chain: MSTSQPGACPCQGAASRPAILYALLSSSLKAVPRPRSRCLCRQHRPVQLCAPHRTCREALDVLAKTVAFLRNLPSFWQLPPQDQRRLLQGCWGPLFLLGLAQDAVTFEVAEAPVPSILKKILLEEPSSSGGSGQLPDRPQPSLAAVQWLQCCLESFWSLELSPKEYACLKGTILFNPDVPGLQAASHIGHLQQEAHWVLCEVLEPWCPAAQGRLTRVLLTASTLKSIPTSLLGDLFFRPIIGDVDIAGLLGDMLLLR
Take B1: the binding entry in assay [3] is reported as “binds”.

B2: V5-SHP S26A (protein, UniProt Q15466 1-257)
chain: MSTSQPGACPCQGAASRPAILYALLASSLKAVPRPRSRCLCRQHRPVQLCAPHRTCREALDVLAKTVAFLRNLPSFWQLPPQDQRRLLQGCWGPLFLLGLAQDAVTFEVAEAPVPSILKKILLEEPSSSGGSGQLPDRPQPSLAAVQWLQCCLESFWSLELSPKEYACLKGTILFNPDVPGLQAASHIGHLQQEAHWVLCEVLEPWCPAAQGRLTRVLLTASTLKSIPTSLLGDLFFRPIIGDVDIAGLLGDMLLLR
On to B2, for which, in assay [4], the binding entry was “binds”.

B3: V5-SHP S26D (protein, UniProt Q15466 1-257)
chain: MSTSQPGACPCQGAASRPAILYALLDSSLKAVPRPRSRCLCRQHRPVQLCAPHRTCREALDVLAKTVAFLRNLPSFWQLPPQDQRRLLQGCWGPLFLLGLAQDAVTFEVAEAPVPSILKKILLEEPSSSGGSGQLPDRPQPSLAAVQWLQCCLESFWSLELSPKEYACLKGTILFNPDVPGLQAASHIGHLQQEAHWVLCEVLEPWCPAAQGRLTRVLLTASTLKSIPTSLLGDLFFRPIIGDVDIAGLLGDMLLLR
With B3, the binding entry in assay [4] is given as “binds”.

B4: V5-tagged SHP (protein, UniProt Q15466 1-257)
chain: MSTSQPGACPCQGAASRPAILYALLSSSLKAVPRPRSRCLCRQHRPVQLCAPHRTCREALDVLAKTVAFLRNLPSFWQLPPQDQRRLLQGCWGPLFLLGLAQDAVTFEVAEAPVPSILKKILLEEPSSSGGSGQLPDRPQPSLAAVQWLQCCLESFWSLELSPKEYACLKGTILFNPDVPGLQAASHIGHLQQEAHWVLCEVLEPWCPAAQGRLTRVLLTASTLKSIPTSLLGDLFFRPIIGDVDIAGLLGDMLLLR
B4: in assay [4], the binding entry was “binds”.

B5: SHP Δ2–19 (C-terminal HA tag, in pEGFP-C1) (protein, UniProt Q15466)
chain: MILYALLSSSLKAVPRPRSRCLCRQHRPVQLCAPHRTCREALDVLAKTVAFLRNLPSFWQLPPQDQRRLLQGCWGPLFLLGLAQDAVTFEVAEAPVPSILKKILLEEPSSSGGSGQLPDRPQPSLAAVQWLQCCLESFWSLELSPKEYACLKGTILFNPDVPGLQAASHIGHLQQEAHWVLCEVLEPWCPAAQGRLTRVLLTASTLKSIPTSLLGDLFFRPIIGDVDIAGLLGDMLLLR
For the molecule B5, the binding entry in assay [4] is on record as “binds”.

B6: Small heterodimer partner (SHP), endogenous in mouse bone marrow-derived macrophages (protein, UniProt Q62227 1-260)
chain: MSSGQSGVCPCQGSAGRPTILYALLSPSPRTRPVAPASHSHCLCQQQRPVRLCAPHRTCREALDVLAKTVAFLRNLPSFCHLPHEDQRRLLECCWGPLFLLGLAQDAVTFEVAEAPVPSILKKILLEEASSGTQGAQPSDRPQPSLAAVQWLQRCLESFWSLELGPKEYAYLKGTILFNPDVPGLRASCHIAHLQQEAHWALCEVLEPWYPASQGRLARILLMASTLKNIPGTLLVDLFFRPIMGDVDITELLEDMLLLR
As to B6, in assay [5], the binding result is on record as “binds”.

B7: thioredoxin interacting protein (TXNIP), endogenous in mouse bone marrow-derived macrophages (protein, UniProt Q8BG60 1-397)
chain: MVMFKKIKSFEVVFNDPEKVYGSGEKVAGRVIVEVCEVTRVKAVRILACGVAKVLWMQGSQQCKQTLDYLRYEDTLLLEEQPTAGENEMVIMRPGNKYEYKFGFELPQGPLGTSFKGKYGCVDYWVKAFLDRPSQPTQEAKKNFEVMDLVDVNTPDLMAPVSAKKEKKVSCMFIPDGRVSVSARIDRKGFCEGDDISIHADFENTCSRIVVPKAAIVARHTYLANGQTKVFTQKLSSVRGNHIISGTCASWRGKSLRVQKIRPSILGCNILKVEYSLLIYVSVPGSKKVILDLPLVIGSRSGLSSRTSSMASRTSSEMSWIDLNIPDTPEAPPCYMDIIPEDHRLESPTTPLLDDVDDSQDSPIFMYAPEFQFMPPPTYTEVDPCVLNNNNNNNNVQ
Consider B7, for which, in assay [5], the binding entry is given as “binds”.

B8: SHP Δ2–10 (C-terminal HA tag, in pEGFP-C1) (protein, UniProt Q15466)
chain: MCQGAASRPAILYALLSSSLKAVPRPRSRCLCRQHRPVQLCAPHRTCREALDVLAKTVAFLRNLPSFWQLPPQDQRRLLQGCWGPLFLLGLAQDAVTFEVAEAPVPSILKKILLEEPSSSGGSGQLPDRPQPSLAAVQWLQCCLESFWSLELSPKEYACLKGTILFNPDVPGLQAASHIGHLQQEAHWVLCEVLEPWCPAAQGRLTRVLLTASTLKSIPTSLLGDLFFRPIIGDVDIAGLLGDMLLLR
For the molecule B8, in assay [4], the binding result is on record as “binds”.

B9: mitochondrial antiviral-signalling protein (MAVS), endogenous in mouse bone marrow-derived macrophages (protein, UniProt Q8VCF0 1-503)
chain: MTFAEDKTYKYIRDNHSKFCCVDVLEILPYLSCLTASDQDRLRASYRQIGNRDTLWGLFNNLQRRPGWVEVFIRALQICELPGLADQVTRVYQSYLPPGTSLRSLEPLQLPDFPAAVSGPSAFAPGHNIPDHGLRETPSCPKPVQDTQPPESPVENSEQLLQTNSGAVARMSGGSLIPSPNQQALSPQPSREHQEQEPELGGAHAANVASVPIATYGPVSPTVSFQPLPRTALRTNLLSGVTVSALSADTSLSSSSTGSAFAKGAGDQAKAATCFSTTLTNSVTTSSVPSPRLVPVKTMSSKLPLSSKSTAAMTSTVLTNTAPSKLPSNSVYAGTVPSRVPASVAKAPANTIPPERNSKQAKETPEGPATKVTTGGNQTGPNSSIRSLHSGPEMSKPGVLVSQLDEPFSACSVDLAISPSSSLVSEPNHGPEENEYSSFRIQVDESPSADLLGSPEPLATQQPQEEEEHCASSMPWAKWLGATSALLAVFLAVMLYRSRRLAQ
B9: in assay [5], the binding result is “binds”.
